Among the data in publication PMC8401035 (Molecules, 2021) are isolated yield values, retold here.

The nature of this data set: general procedure: Fmoc solid-phase peptide synthesis; Rink amide MBHA resin (~0.5 mmol/g); DIC/6-Cl-HOBt or HBTU/NMM. Particulars: whole synthesis, scale 0.25 mmol.

“HSDAIFTDSY10SRYRKQÑAVK20KYL-Ser(Lac)-CONH2” came in with an isolated yield of 2.5%. Then “HSDGIFTDSY10SRYRKQÑAVK20KYL-Ser(Glc)-CONH2”, with 3.1%.

As for “HSDGIFTDSY10SRYRKQÑAVK20KYL-Ser(Glc)-Ser(Glc)-CONH2”, the isolated yield is on record as 0.9%.

Substance “HSDGIFTDSY10SRYRKQÑAVK20KYL-Ser(Lac)-CONH2” displayed an isolated yield of 4.5%.

In turn, “HSDGIFTDSY10SRYRKQÑAVK20KYL-Ser(OH)-CONH2” had an isolated yield of 3.6%. In the case of “HSD∑IFTDSY10SRYRKQÑAVK20KYL-Ser(Lac)-CONH2”, the isolated yield was found to be 3.9%.
